# Experimental data: the supplement of paper PMC8728848
# The other results are listed elsewhere or left out.
# B1: SHCBP1-GST (Homo sapiens), Q8NEM2 (protein)
# chain: MADGSLTGGGLEAAAMAPERMGWAVEQELASLEKGLFQDEDSCSDCSYRDKPGSSLQSFMPEGKTFFPEIFQTNQLLFYERFRAYQDYILADCKASEVQEFTAEFLEKVLEPSGWRAVWHTNVFKVLVEITDVDFAALKAVVRLAEPYLCDSQVSTFTMECMKELLDLKEHRLPLQELWVVFDDSGVFDQTALAIEHVRFFYQNIWRSWDEEEEDEYDYFVRCVEPRLRLHYDILEDRVPSGLIVDYHNLLSQCEESYRKFLNLRSSLSNCNSDSEQENISMVEGLKLYSEMEQLKQKLKLIENPLLRYVFGYQKNSNIQAKGVRSSGQKITHVVSSTMMAGLLRSLLTDRLCQEPGEEEREIQFHSDPLSAINACFEGDTVIVCPGHYVVHGTFSIADSIELEGYGLPDDIVIEKRGKGDTFVDCTGADIKISGIKFVQHDAVEGILIVHRGKTTLENCVLQCETTGVTVRTSAEFLMKNSDLYGAKGAGIEIYPGSQCTLSDNGIHHCKEGILIKDFLDEHYDIPKISMVNNIIHNNEGYGVVLVKPTIFSDLQENAEDGTEENKALKIQTSGEPDVAERVDLEELIECATGKMELCARTDPSEQVEGNCEIVNELIAASTQKGQIKKKRLSELGITQADDNLMSQEMFVGIVGNQFKWNGKGSFGTFLF
# Columns and labels:
# Experiment in all cases: glycan array binding signal (z-score within array); higher = stronger binding
# Details in all cases: glycan notation: IUPAC condensed, linker removed
# Fuc(a1-2)Gal = target: Fuc(a1-2)Gal
# Summary of the method: (§1)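 Glycan array data were curated from 3228 arrays in the Consortium for Functional Glycomics database and kept only where the protein sequence was available. Glycan names were converted to IUPAC-condensed notation, and columns mapping to the same glycan were averaged. The binding signal is a within-array Z-score, averaged across arrays of the same protein sequence at different concentrations or buffers and across linkers. Negative Z-scores can be read as non-binding.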
# Fuc(a1-2)Gal(b1-3)GalNAc = target: Fuc(a1-2)Gal(b1-3)GalNAc
# Summary of the method: as §1
# [1] = target: Fuc(a1-2)Gal(b1-3)GalNAc(a1-3)[Fuc(a1-2)]Gal(b1-4)Glc
# Summary of the method: as §1
# [2] = target: Fuc(a1-2)Gal(b1-3)GalNAc(a1-3)[Fuc(a1-2)]Gal(b1-4)GlcNAc
# Summary of the method: as §1
# [3] = target: Fuc(a1-2)Gal(b1-3)GalNAc(b1-3)Gal
# Summary of the method: as §1
# [4] = target: Fuc(a1-2)Gal(b1-3)GalNAc(b1-3)Gal(a1-4)Gal(b1-4)Glc
# Summary of the method: as §1
# [5] = target: Fuc(a1-2)Gal(b1-3)GalNAc(b1-4)[Neu5Ac(a2-3)]Gal(b1-4)Glc
# Summary of the method: as §1
# Fuc(a1-2)Gal(b1-3)GlcNAc = target: Fuc(a1-2)Gal(b1-3)GlcNAc
# Summary of the method: as §1
# [6] = target: Fuc(a1-2)Gal(b1-3)GlcNAc(b1-2)Man(a1-3)[Fuc(a1-2)Gal(b1-3)GlcNAc(b1-2)Man(a1-6)]Man(b1-4)GlcNAc(b1-4)GlcNAc
# Summary of the method: as §1
# [7] = target: Fuc(a1-2)Gal(b1-3)GlcNAc(b1-2)Man(a1-3)[Fuc(a1-2)Gal(b1-3)GlcNAc(b1-2)Man(a1-6)]Man(b1-4)GlcNAc(b1-4)[Fuc(a1-6)]GlcNAc
# Summary of the method: as §1
# [8] = target: Fuc(a1-2)Gal(b1-3)GlcNAc(b1-3)Gal(b1-4)Glc
# Summary of the method: as §1
# [9] = target: Fuc(a1-2)Gal(b1-3)GlcNAc(b1-3)GalNAc
# Summary of the method: as §1
# [10] = target: Fuc(a1-2)Gal(b1-3)GlcNAc(b1-3)[Fuc(a1-2)Gal(b1-3)GlcNAc(b1-6)]GalNAc
# Summary of the method: as §1
# [11] = target: Fuc(a1-2)Gal(b1-3)GlcNAc(b1-3)[Gal(b1-4)GlcNAc(b1-6)]Gal(b1-4)Glc
# Summary of the method: as §1
# [12] = target: Fuc(a1-2)Gal(b1-3)GlcNAc(b1-3)[Neu5Ac(a2-6)Gal(b1-4)GlcNAc(b1-6)]Gal(b1-4)Glc
# Summary of the method: as §1
# [13] = target: Fuc(a1-2)Gal(b1-3)GlcNAc6S
# Summary of the method: as §1
# [14] = target: Fuc(a1-2)Gal(b1-3)[Fuc(a1-4)]GlcNAc
# Summary of the method: as §1
# [15] = target: Fuc(a1-2)Gal(b1-3)[Fuc(a1-4)]GlcNAc(b1-2)Man(a1-3)[Fuc(a1-2)Gal(b1-3)[Fuc(a1-4)]GlcNAc(b1-2)Man(a1-3)]Man(b1-4)GlcNAc(b1-4)GlcNAc
# Summary of the method: as §1
# [16] = target: Fuc(a1-2)Gal(b1-3)[Fuc(a1-4)]GlcNAc(b1-2)Man(a1-3)[Fuc(a1-2)Gal(b1-3)[Fuc(a1-4)]GlcNAc(b1-2)Man(a1-6)]Man(b1-4)GlcNAc(b1-4)[Fuc(a1-6)]GlcNAc(b1-4)[Fuc(a1-6)]GlcNAc
# Summary of the method: as §1
# [17] = target: Fuc(a1-2)Gal(b1-3)[Fuc(a1-4)]GlcNAc(b1-3)[Fuc(a1-3)[Gal(b1-4)]GlcNAc(b1-6)]Gal(b1-4)Glc
# Summary of the method: as §1
# [18] = target: Fuc(a1-2)Gal(b1-3)[Fuc(a1-4)]GlcNAc(b1-3)[Gal(b1-4)GlcNAc(b1-6)]Gal(b1-4)Glc
# Summary of the method: as §1
# [19] = target: Fuc(a1-2)Gal(b1-4)Fuc(a1-3)]GlcNAc(b1-2)Man(a1-3)[Fuc(a1-2)Gal(b1-4)[Fuc(a1-3)]GlcNAc(b1-2)Man(a1-6)]Man(b1-4)GlcNAc(b1-4)GlcNAc
# Summary of the method: as §1
# Fuc(a1-2)Gal(b1-4)Glc = target: Fuc(a1-2)Gal(b1-4)Glc
# Summary of the method: as §1
# Fuc(a1-2)Gal(b1-4)Glc6S = target: Fuc(a1-2)Gal(b1-4)Glc6S
# Summary of the method: as §1
# Fuc(a1-2)Gal(b1-4)GlcNAc = target: Fuc(a1-2)Gal(b1-4)GlcNAc
# Summary of the method: as §1
# [20] = target: Fuc(a1-2)Gal(b1-4)GlcNAc(b1-2)Man
# Summary of the method: as §1
# [21] = target: Fuc(a1-2)Gal(b1-4)GlcNAc(b1-2)Man(a1-3)[Fuc(a1-2)Gal(b1-4)GlcNAc(b1-2)Man(a1-6)]Man(b1-4)GlcNAc(b1-4)GlcNAc
# Summary of the method: as §1
# [22] = target: Fuc(a1-2)Gal(b1-4)GlcNAc(b1-2)Man(a1-3)[Fuc(a1-2)Gal(b1-4)GlcNAc(b1-2)Man(a1-6)]Man(b1-4)GlcNAc(b1-4)[Fuc(a1-6)]GlcNAc
# Summary of the method: as §1
# [23] = target: Fuc(a1-2)Gal(b1-4)GlcNAc(b1-2)[Fuc(a1-2)Gal(b1-4)GlcNAc(b1-4)]Man(a1-3)[Fuc(a1-2)Gal(b1-4)GlcNAc(b1-2)Man(a1-6)]Man(b1-4)GlcNAc(b1-4)GlcNAc
# Summary of the method: as §1
# [24] = target: Fuc(a1-2)Gal(b1-4)GlcNAc(b1-3)Gal(b1-4)GlcNAc
# Summary of the method: as §1
# [25] = target: Fuc(a1-2)Gal(b1-4)GlcNAc(b1-3)Gal(b1-4)GlcNAc(b1-2)Man(a1-3)[Fuc(a1-2)Gal(b1-4)GlcNAc(b1-3)Gal(b1-4)GlcNAc(b1-2)Man(a1-6)]Man(b1-4)GlcNAc(b1-4)GlcNAc
# Summary of the method: as §1
# [26] = target: Fuc(a1-2)Gal(b1-4)GlcNAc(b1-3)Gal(b1-4)GlcNAc(b1-3)Gal(b1-4)GlcNAc
# Summary of the method: as §1
# [27] = target: Fuc(a1-2)Gal(b1-4)GlcNAc(b1-3)GalNAc
# Summary of the method: as §1
# [28] = target: Fuc(a1-2)Gal(b1-4)GlcNAc(b1-3)[Fuc(a1-2)Gal(b1-4)GlcNAc(b1-6)]GalNAc
# Summary of the method: as §1
# [29] = target: Fuc(a1-2)Gal(b1-4)GlcNAc(b1-3)[Fuc(a1-3)[Gal(b1-4)]GlcNAc(b1-6)]Gal(b1-4)Glc
# Summary of the method: as §1
# [30] = target: Fuc(a1-2)Gal(b1-4)GlcNAc(b1-6)GalNAc
# Summary of the method: as §1
# [31] = target: Fuc(a1-2)Gal(b1-4)GlcNAc6S
# Summary of the method: as §1
# [32] = target: Fuc(a1-2)Gal(b1-4)[Fuc(a1-3)]GlcNAc
# Summary of the method: as §1
# [33] = target: Fuc(a1-2)Gal(b1-4)[Fuc(a1-3)]GlcNAc(b1-2)Man(a1-3)[Fuc(a1-2)Gal(b1-4)[Fuc(a1-3)]GlcNAc(b1-2)Man(a1-6)]Man(b1-4)GlcNAc(b1-4)[Fuc(a1-6)]GlcNAc
# Summary of the method: as §1
# [34] = target: Fuc(a1-2)Gal(b1-4)[Fuc(a1-3)]GlcNAc(b1-2)[Fuc(a1-2)Gal(b1-4)[Fuc(a1-3)]GlcNAc(b1-4)]Man(a1-3)[Fuc(a1-2)Gal(b1-4)[Fuc(a1-3)]GlcNAc(b1-2)Man(a1-6)]Man(b1-4)GlcNAc(b1-4)GlcNAc
# Summary of the method: as §1
# [35] = target: Fuc(a1-2)Gal(b1-4)[Fuc(a1-3)]GlcNAc(b1-3)Gal(b1-4)[Fuc(a1-3)]GlcNAc
# Summary of the method: as §1
# [36] = target: Fuc(a1-2)Gal(b1-4)[Fuc(a1-3)]GlcNAc(b1-3)Gal(b1-4)[Fuc(a1-3)]GlcNAc(b1-3)Gal(b1-4)[Fuc(a1-3)]GlcNAc
# Summary of the method: as §1
# [37] = target: Fuc(a1-2)Gal(b1-4)[Fuc(a1-3)]GlcNAc(b1-3)GalNAc
# Summary of the method: as §1
# [38] = target: Fuc(a1-2)Gal(b1-4)[Fuc(a1-3)]GlcNAc(b1-3)[Neu5Ac(a2-6)Gal(b1-4)GlcNAc(b1-6)]Gal(b1-4)Glc
# Summary of the method: as §1
# [39] = target: Fuc(a1-2)Gal3S(b1-4)GlcNAc
# Summary of the method: as §1
binder,measurement,setting,value
B1,glycan array binding signal (z-score),Fuc(a1-2)Gal,-0.698
same,glycan array binding signal (z-score),Fuc(a1-2)Gal(b1-3)GalNAc,-0.317
same,glycan array binding signal (z-score),[1],-0.92
same,glycan array binding signal (z-score),[2],-0.781
same,glycan array binding signal (z-score),[3],1.05
same,glycan array binding signal (z-score),[4],-0.164
same,glycan array binding signal (z-score),[5],-0.821
same,glycan array binding signal (z-score),Fuc(a1-2)Gal(b1-3)GlcNAc,-0.695
same,glycan array binding signal (z-score),[6],0.369
same,glycan array binding signal (z-score),[7],0.265
same,glycan array binding signal (z-score),[8],-0.116
same,glycan array binding signal (z-score),[9],-1.22
same,glycan array binding signal (z-score),[10],0.926
same,glycan array binding signal (z-score),[11],1.25
same,glycan array binding signal (z-score),[12],-0.751
same,glycan array binding signal (z-score),[13],-0.806
same,glycan array binding signal (z-score),[14],0.085
same,glycan array binding signal (z-score),[15],0.999
same,glycan array binding signal (z-score),[16],-0.004
same,glycan array binding signal (z-score),[17],-0.169
same,glycan array binding signal (z-score),[18],-0.384
same,glycan array binding signal (z-score),[19],1.07
same,glycan array binding signal (z-score),Fuc(a1-2)Gal(b1-4)Glc,-0.192
same,glycan array binding signal (z-score),Fuc(a1-2)Gal(b1-4)Glc6S,-0.251
same,glycan array binding signal (z-score),Fuc(a1-2)Gal(b1-4)GlcNAc,-0.448
same,glycan array binding signal (z-score),[20],-0.583
same,glycan array binding signal (z-score),[21],1.65
same,glycan array binding signal (z-score),[22],0.201
same,glycan array binding signal (z-score),[23],0.511
same,glycan array binding signal (z-score),[24],-0.943
same,glycan array binding signal (z-score),[25],0.277
same,glycan array binding signal (z-score),[26],0.091
same,glycan array binding signal (z-score),[27],0.559
same,glycan array binding signal (z-score),[28],-0.881
same,glycan array binding signal (z-score),[29],-0.338
same,glycan array binding signal (z-score),[30],0.361
same,glycan array binding signal (z-score),[31],0.614
same,glycan array binding signal (z-score),[32],-0.113
same,glycan array binding signal (z-score),[33],0.791
same,glycan array binding signal (z-score),[34],2.02
same,glycan array binding signal (z-score),[35],-0.224
same,glycan array binding signal (z-score),[36],-0.139
same,glycan array binding signal (z-score),[37],0.03
same,glycan array binding signal (z-score),[38],-0.093
same,glycan array binding signal (z-score),[39],-0.831

# Part of the list above, tab-delimited.
binder	measurement	setting	value
B1	glycan array binding signal (z-score)	Fuc(a1-2)Gal	-0.698
same	glycan array binding signal (z-score)	[6]	0.369
same	glycan array binding signal (z-score)	[10]	0.926
